Results taken from the supplement of paper PMC3334620.
Over roughly 33,000 sequences, “E-score (-0.5 to 0.5)” has its median near -0.0059; the highest 2% begin near 0.26. The list shows a part of the results.

Molecular target: T1, Cin5 (UniProt P40917)
T1 sequence: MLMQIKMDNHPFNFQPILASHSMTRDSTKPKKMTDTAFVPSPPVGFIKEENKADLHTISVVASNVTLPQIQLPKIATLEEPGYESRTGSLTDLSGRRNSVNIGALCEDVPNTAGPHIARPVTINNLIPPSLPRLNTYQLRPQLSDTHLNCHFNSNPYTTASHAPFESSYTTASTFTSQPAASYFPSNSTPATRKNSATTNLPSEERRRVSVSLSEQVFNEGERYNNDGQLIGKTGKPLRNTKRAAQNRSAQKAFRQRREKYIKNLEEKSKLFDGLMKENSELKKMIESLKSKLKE
Assay: PBM E-score (8-mer binding enrichment) (E-score (-0.5 to 0.5)); higher = stronger / more preferred TF binding
Settings: protein concentration: 100 nM; construct: GST-full length
Procedure, shortened: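 Each ungapped eight-base word and its reverse complement, pooled, received an E-score from the Universal PBM Analysis Suite. Underlying scans, normalised with masliner, recorded fluorescent anti-GST bound to GST-tagged yeast transcription factors. These were applied at about 100-200 nM to universal all-10-mer Agilent arrays double-stranded by primer extension.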

| Sequence | PBM E-score |
| --- | --- |
| AGCTAAAA | -0.0663 |
| ATGGCATG | 0.0725 |
| ACAGCCTC | -0.238 |
| CATTTTAG | 0.137 |
| CGCTCCAC | -0.165 |
| TCTTTACA | 0.187 |
| GGTTCGTA | 0.142 |
| CCCTTCAC | -0.159 |
| CTTTTGTC | 0.0908 |
| TATCACAA | 0.18 |
| CTGCCGTA | -0.12 |
| GCACCATA | 0.0072 |
| GACCCTAC | -0.109 |
| GGTCGAAA | -0.0987 |
| AGGGCCTC | -0.297 |
| CGCGGTAA | 0.0578 |
| AAGGCTGT | -0.197 |
| ATAGCGAT | 0.0976 |
| GGTACTCA | 0.0119 |
| TCGATGAA | 0.108 |
| ATTCTCTC | 0.0677 |
| ATCATCAA | 0.145 |
| AAGTGAGA | -0.0435 |
| TAACTGCA | 0.181 |
| CTACAATA | 0.137 |

| Sequence | PBM E-score |
| --- | --- |
| CGCTCGTA | -0.0211 |
| GCTACAAC | -0.0423 |
| TAGCGGGA | -0.152 |
| AGTCGCTG | -0.0219 |
| TAAGTGGA | 0.119 |
| ATTCAACC | -0.0256 |
| ACAGTAAG | 0.112 |
| ATCTCCAA | 0.118 |
| CCGGAAGC | 0.0511 |
| CGGTCTCA | -0.253 |
| GTCCCTCA | -0.0572 |
| AGTTAAAT | -0.078 |
| GTCAAGCA | -0.272 |
| GGGCATGA | -0.168 |
| ACGAGGCT | 0.034 |
| CTAATGGA | -0.025 |
| CTATATTC | 0.0546 |
| CCCCGATC | -0.00403 |
| TAGGGGGA | -0.322 |
| TTTCAAAA | 0.0682 |
| AACTGGTA | -0.00478 |
| TCAGCAGA | -0.0484 |
| AGTACACT | -0.0432 |
| GTTCCGAA | 0.225 |
| AACGAGGT | -0.0717 |

Reformatted with tabs: part of the list above.
Sequence	PBM E-score
CTTTTGTC	0.0908
TATCACAA	0.18
CTGCCGTA	-0.12
GCACCATA	0.0072
GACCCTAC	-0.109
GGTCGAAA	-0.0987

(listing goes on)

| Sequence | PBM E-score |
| --- | --- |
| GTGTTTTA | 0.0913 |
| CCTCCGGA | -0.136 |
| ATTAACCA | 0.0718 |
| CCGAGCAG | -0.165 |
| AACACCAG | -0.0996 |
| AGGGGGAC | -0.409 |
| ACCGCTTC | -0.186 |
| CCAGGTGA | -0.0892 |
| GTATCTTA | 0.251 |
| CCAAATAA | 0.166 |
| ATGGTATG | 0.043 |
| AAATCAAG | 0.164 |
| ACATGACA | 0.0953 |
| ACCTAACC | 0.213 |
| CCAATCTC | 0.139 |
| ACCCAACC | 0.00819 |
| TCGGCAGA | -0.0269 |
| AAGAACTT | -0.0497 |
| AGGTGCCA | -0.0425 |
| CTTGATGC | -0.0757 |
| AGATGGAG | 0.0972 |
| GAAAAAAC | 0.0376 |
| CTTTCTCA | 0.0938 |
| ATAATGAT | 0.241 |
| GCGGTAGC | -0.00413 |

| Sequence | PBM E-score |
| --- | --- |
| ATACCACA | 0.126 |
| ATACGGTA | 0.086 |
| CACCTGGC | -0.139 |
| GAGTAGGC | -0.0301 |
| CTTCGTTC | -0.0885 |
| CGAGACCC | -0.0551 |
| CGTGTTCC | 0.02 |
| GCGTCTCC | -0.128 |
| GAGACGAA | 0.0297 |
| ACCGGGAA | 0.15 |
| AGGGGTAC | -0.103 |
| CTATTCAA | 0.185 |
| GTGACACA | 0.096 |
| GGGAGTAA | -0.0267 |
| AGCTTGGC | -0.165 |
| ACTCATTG | -0.0555 |
| AGCACGCG | -0.0209 |
| CAGGCCAC | -0.118 |
| AGTAGATG | 0.0868 |
| CCGCTAAG | -0.0258 |
| CGGGCCCG | 0.188 |
| AGCTCCGA | -0.0183 |
| CAGACGCG | -0.152 |
| GCCTTTGA | -0.0143 |
| GTAGTTAA | 0.0886 |

| Sequence | PBM E-score |
| --- | --- |
| ACTTAGGA | -0.229 |
| AGAGCTGG | -0.17 |
| GGGGCCAA | -0.0517 |
| GACTGTAA | 0.0919 |
| GGAGCCCA | -0.254 |
| TACGGCTA | -0.0986 |
| AGCCTTCC | -0.211 |
| ATCGGTTC | 0.0536 |
| CAGATGAG | 0.0638 |
| CTCATGTC | -0.141 |
| GCAGGTGA | -0.00692 |
| AACGGCTT | -0.0579 |
| AGCCATGG | -0.187 |
| TAAACCGA | -0.0557 |
| AGCCCTGC | -0.166 |
| GTTCGTCA | -0.129 |
| AGGGCCAT | -0.105 |
| CGTGGGGA | -0.0867 |
| CCGATCAC | 0.048 |
| CTAGGGCC | -0.192 |
| GCTAAGAC | -0.0441 |
| CAAGCTCG | -0.0314 |
| CCGTTGGC | -0.124 |
| ATAAACGC | -0.0761 |
| CTGTATCC | 0.0454 |

| Sequence | PBM E-score |
| --- | --- |
| ATACCCTA | 0.0962 |
| AATCTCTA | 0.171 |
| CGTTGCAA | 0.045 |
| CACCGCCG | -0.185 |
| CAATATGA | 0.118 |
| AGTAGACC | -0.00144 |
| CACCCCTA | 0.0576 |
| CTGCCTGC | -0.203 |
| CCGGAGTC | 0.014 |
| CGGACCTC | -0.228 |
| GCTATAGA | -0.0994 |
| GATGCGGC | -0.197 |
| AGTTTAAC | -0.0624 |
| CGAGACTA | 0.0429 |
| CGCTTGGC | -0.268 |
| GCAGGGGA | -0.215 |
| AGCCTGGC | -0.163 |
| CGGAACGC | 0.0289 |
| GTAGCCCA | -0.129 |
| ACACGTTG | -0.238 |
| AGAAACGA | 0.127 |
| ATGCCCCG | -0.148 |
| ACATCCCC | 0.126 |
| CCCCCAAA | -0.379 |
| TACCGCAA | 0.0544 |

| Sequence | PBM E-score |
| --- | --- |
| CCTCTGAG | -0.107 |
| ACGGTGAG | -0.0402 |
| CATCCTGA | 0.0709 |
| CCATGGTA | 0.028 |
| GAGATCGC | -0.0568 |
| AAAGACAG | 0.199 |
| CCCAGTAG | -0.0994 |
| GGCATAAA | 0.0228 |
| GTAGGAGA | -0.185 |
| AGAGGGCG | -0.0549 |
| ACAGTGAA | 0.0426 |
| GACCTGAC | 0.0377 |
| GAGGCCCA | -0.251 |
| AGCCCCTA | -0.163 |
| AATGTACC | -0.0742 |
| TGAACTAA | 0.0395 |
| AAGTTATC | 0.147 |
| CTCGAGAG | -0.0194 |
| GGATAACC | -0.0816 |
| CCTACTCA | -0.0393 |
| CGTTTCCC | -0.0818 |
| CGCGACAG | -0.0201 |

Quoted at random: 4 entries already listed

| Sequence | PBM E-score |
| --- | --- |
| GACCCTAC | -0.109 |
| CTTGATGC | -0.0757 |
| GTATCTTA | 0.251 |
| CCCCGATC | -0.00403 |

Part of the list above, with tabs:
Sequence	PBM E-score
GTAGGAGA	-0.185
AGAGGGCG	-0.0549
ACAGTGAA	0.0426
GACCTGAC	0.0377
